No constants are given. Whether binding was seen depends on the method and setting. In cells and extracts the contact can be indirect. Binding calls can cover weak binding; strength is not graded here. Tags and fused reporters may be left off the sequences shown.
Target: T1, Flag-mouse lipin-2 (mouse) (UniProt Q99PI5)
T1 sequence: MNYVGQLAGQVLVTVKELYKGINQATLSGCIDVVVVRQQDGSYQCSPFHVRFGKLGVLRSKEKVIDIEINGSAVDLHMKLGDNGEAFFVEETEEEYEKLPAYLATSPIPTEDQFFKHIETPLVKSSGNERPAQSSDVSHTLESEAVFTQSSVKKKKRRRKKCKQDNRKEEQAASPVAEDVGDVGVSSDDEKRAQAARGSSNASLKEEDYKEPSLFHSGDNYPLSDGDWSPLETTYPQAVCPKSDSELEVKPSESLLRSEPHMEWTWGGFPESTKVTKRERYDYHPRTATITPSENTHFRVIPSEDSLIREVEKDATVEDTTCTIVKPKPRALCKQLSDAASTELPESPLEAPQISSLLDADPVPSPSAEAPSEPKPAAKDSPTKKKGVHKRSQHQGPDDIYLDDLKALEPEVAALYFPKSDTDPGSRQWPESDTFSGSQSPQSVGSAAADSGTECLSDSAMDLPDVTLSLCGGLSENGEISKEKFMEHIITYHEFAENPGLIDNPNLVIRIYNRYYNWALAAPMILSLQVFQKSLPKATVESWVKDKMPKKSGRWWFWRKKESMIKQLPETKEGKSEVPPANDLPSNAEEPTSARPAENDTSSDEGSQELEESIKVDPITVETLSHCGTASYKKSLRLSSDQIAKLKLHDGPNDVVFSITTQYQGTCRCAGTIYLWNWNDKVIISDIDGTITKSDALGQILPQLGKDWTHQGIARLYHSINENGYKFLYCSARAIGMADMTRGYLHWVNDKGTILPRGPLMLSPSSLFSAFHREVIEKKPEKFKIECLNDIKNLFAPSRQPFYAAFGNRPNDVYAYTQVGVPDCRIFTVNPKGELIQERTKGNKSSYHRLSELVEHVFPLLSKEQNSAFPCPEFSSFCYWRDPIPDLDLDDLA
Assay: co-IP; 293T cells co-transfected with Flag- and HA-tagged plasmids; anti-HA or anti-Flag beads, NP-40 lysis buffer (50 mM Tris-Cl pH 7.5, 120 mM NaCl, 0.5% NP-40), 4 °C, 4 h; immunoblot

binding: binds
Substance: HA-NFATc1
